Measurements reported in PubChem BioAssay AID504774 (Drosophila RNAi Screening Center, 2011).

Aim: 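Knock-downs that shift viability of MMS-exposed cells relative to untreated ones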 (primary screen)
Cells: Drosophila Kc167 cells
Reagent: long dsRNA against Drosophila genes, about 0.25 µg dsRNA per well
Time to read-out: about 6 days: 3 days knock-down, then 3 days with or without MMS
Challenge: methyl methanesulphonate 0.004% (w/v) for 3 days after knock-down
Measurement: 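Viability in wells given MMS, read as ATP luminescence, normalised by quantiles plate by plate and averaged across replicates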
Direction: mean viability with MMS and viability with MMS: higher = more surviving cells after MMS
The deposit covers about 23,000 reagents; this is a random part of those with a known target gene and a result. 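Values are quantile-normalised luminescence on an arbitrary scale; higher means more cells surviving MMS.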 Not all columns of the deposit are shown.

l(1)G0020 [DRSC18198] → mean viability with MMS: 3.52e6; viability with MMS, replicate 1: 3.74e6
CG11155 [DRSC17184] → mean viability with MMS: 3.68e6; viability with MMS, replicate 1: 4.04e6
CG11155 [DRSC17205] → mean viability with MMS: 3.56e6; viability with MMS, replicate 1: 4.07e6
CG1647 [DRSC15134] → mean viability with MMS: 3.41e6; viability with MMS, replicate 1: 3.87e6
CG3528 [DRSC00611] → mean viability with MMS: 3.47e6; viability with MMS, replicate 1: 3.97e6
CG15473 [DRSC18056] → mean viability with MMS: 3.59e6; viability with MMS, replicate 1: 4.19e6
CG10839 [DRSC01965] → mean viability with MMS: 3.50e6; viability with MMS, replicate 1: 3.98e6
CR16735 [DRSC15144] → mean viability with MMS: 3.40e6; viability with MMS, replicate 1: 3.70e6
GluRIIE [DRSC13431] → mean viability with MMS: 3.47e6; viability with MMS, replicate 1: 4.04e6
CG14071 [DRSC02374] → mean viability with MMS: 3.74e6; viability with MMS, replicate 1: 4.15e6
CG30022 [DRSC22405] → mean viability with MMS: 3.57e6; viability with MMS, replicate 1: 4.08e6
ms(2)35Ci [DRSC01460] → mean viability with MMS: 3.72e6; viability with MMS, replicate 1: 4.13e6
CG34263 [DRSC07866] → mean viability with MMS: 3.66e6; viability with MMS, replicate 1: 4.21e6
Jon66Ci [DRSC10772] → mean viability with MMS: 3.69e6; viability with MMS, replicate 1: 4.14e6
Cpr49Af [DRSC07202] → mean viability with MMS: 3.43e6; viability with MMS, replicate 1: 3.96e6
PGRP-LE [DRSC20137] → mean viability with MMS: 3.54e6; viability with MMS, replicate 1: 4.04e6
CG15742 [DRSC19708] → mean viability with MMS: 3.43e6; viability with MMS, replicate 1: 3.49e6
Obp51a [DRSC22412] → mean viability with MMS: 3.71e6; viability with MMS, replicate 1: 4.06e6
Rpn1 [DRSC11274] → mean viability with MMS: 2.92e6; viability with MMS, replicate 1: 3.59e6
Pdss2 [DRSC11625] → mean viability with MMS: 3.53e6; viability with MMS, replicate 1: 4.04e6
CG30338 [DRSC05166] → mean viability with MMS: 3.46e6; viability with MMS, replicate 1: 3.98e6
CG30195 [DRSC04155] → mean viability with MMS: 3.73e6; viability with MMS, replicate 1: 4.17e6
CG9586 [DRSC03270] → mean viability with MMS: 3.72e6; viability with MMS, replicate 1: 4.39e6
CG11986 [DRSC14461] → mean viability with MMS: 3.73e6; viability with MMS, replicate 1: 4.36e6

Part of the list above, limited to “viability with MMS, replicate 1”:
Rpn1 [DRSC11274]	3.59e6
Pdss2 [DRSC11625]	4.04e6
CG30338 [DRSC05166]	3.98e6
